In article PMC10881386:

Target: T1, Nup58(523–589) FG-domain fragment (BLI probe) (UniProt Q9BVL2)
T1 sequence (chain, biotin): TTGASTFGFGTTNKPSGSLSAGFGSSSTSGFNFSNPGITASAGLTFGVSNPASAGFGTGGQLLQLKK
Assay: BLI; biotinylated, N-terminally Avi-tagged ligands immobilised on streptavidin tips (1 nm); analyte in solution; 20 mM Tris/HCl pH 8.0, 300 mM NaCl, 0.1% BSA, 0.02% Tween-20; OctetRED96; both purified

CA-N57A mutant hexamers (HIV-1) (complex)
binding: binds

Results are given in words; binding and its absence hold for the method and conditions named. Binding can be weak; no strength is given.
